Results are given in words; binding and its absence hold for the method and conditions named. Binding seen in cells or lysates may run through a third protein. Binding calls can cover weak binding; strength is not graded here. Sequences can lack the tags named with a protein.
T1: GP64, BmNPV envelope fusion protein (Bombyx mori nucleopolyhedrovirus (BmNPV)) (UniProt P41722)
T1 sequence: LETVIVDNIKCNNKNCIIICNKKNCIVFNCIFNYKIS


What was measured:
[1] = biological target: T1, GP64, BmNPV envelope fusion protein (Bombyx mori nucleopolyhedrovirus (BmNPV)); test: co-IP; GP64 and Flag-tagged BmREEPa over-expressed together in BmN-SWU1 cells, lysed 72 h post-transfection; anti-Flag or anti-GP64 antibody on protein A magnetic beads; eluted proteins blotted with anti-GP64 and anti-Flag respectively; IgG as control
[2] = biological target: BmREEPa with Flag tags (Bombyx mori); test: as above

| Molecule | binding [1] | binding [2] |
| --- | --- | --- |
| BmREEPa with Flag tags (Bombyx mori) | binds |  |
| LETVIVDNIKCNNKNCIIICNKKNCIVFNCIFNYKIS (peptide, UniProt P41722 1-37) [GP64, BmNPV envelope fusion protein] |  | binds |

— paper PMC4681539
